Data as given in PubChem BioAssay AID720505 (Drosophila RNAi Screening Center, 2013).
Test: 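Fly regulators or components of the CRAC channel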 (primary screen). Cells: Drosophila S2R+ cells. Knock-down reagent: long dsRNA against Drosophila genes. Conditions: thapsigargin (2 µM) in calcium-free buffer to empty internal stores, then 2 mM calcium added back. Read-out: 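Fluo-4 signal in 384-well plates read on a FLIPR after thapsigargin (2 µM, calcium-free) store depletion and 2 mM calcium add-back; unnormalised mean endpoint per well; screen run twice, selected wells retested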. Reading the numbers: calcium signal and retest calcium signal: higher = more calcium entry after store depletion. Call rule: 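About 1500 genes called as lowering calcium entry, by varying amounts, judged against per-plate control wells with STIM1 as positive and Rho1 as negative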. Calls: active = called as lowering calcium entry; inactive = not called.
The deposit covers about 20,000 reagents; shown is a random part of those with a known target gene and a result. Of all reagents, about 2,100 (10%) were called active. 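Raw plate signals without normalisation; calls rest on control-based scores that were not deposited; replicate 2 separates called from uncalled poorly.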 The numbers tell different reagents against one gene apart. A plus sign joins genes that one reagent is predicted to hit. Not stated in the record: the amount of reagent, the time to read-out.

Nct (GeneID 42964)
- calcium signal, replicate 1: 143
- calcium signal, replicate 2: 325
- Call: inactive

inaF-A (GeneID 5740676)
- calcium signal, replicate 1: 104
- calcium signal, replicate 2: 81.2
- Call: inactive

CG13123 (GeneID 34303)
- calcium signal, replicate 1: 174
- calcium signal, replicate 2: 134
- Call: inactive

Pka-C1 (GeneID 34284) #1
- calcium signal, replicate 1: 95
- calcium signal, replicate 2: 102
- Call: inactive

Pka-C1 (GeneID 34284) #2
- calcium signal, replicate 1: 130
- calcium signal, replicate 2: 156
- Call: inactive

SerRS-m (GeneID 41862)
- calcium signal, replicate 1: 130
- calcium signal, replicate 2: 189
- Call: inactive

Tusp (GeneID 43317)
- calcium signal, replicate 1: 86.2
- calcium signal, replicate 2: 79.8
- Call: inactive

Rbpn-5 (GeneID 37395)
- calcium signal, replicate 1: 148
- calcium signal, replicate 2: 94.7
- Call: inactive

CG7970 (GeneID 38205)
- calcium signal, replicate 1: 197
- calcium signal, replicate 2: 110
- Call: inactive

Pdp1 (GeneID 45588) #1
- Call: active

Pdp1 (GeneID 45588) #2
- Call: active

Pdp1 (GeneID 45588) #3
- calcium signal, replicate 1: 89.9
- calcium signal, replicate 2: 63.7
- Call: inactive

Pdp1 (GeneID 45588) #4
- calcium signal, replicate 1: 86.4
- calcium signal, replicate 2: 69.3
- Call: inactive

kappaB-Ras + CG30503 #1
- calcium signal, replicate 1: 136
- calcium signal, replicate 2: 140
- Call: inactive

kappaB-Ras + CG30503 #2
- calcium signal, replicate 1: 121
- calcium signal, replicate 2: 117
- Call: inactive

lz (GeneID 31883) #1
- calcium signal, replicate 1: 120
- calcium signal, replicate 2: 110
- retest calcium signal, replicate 1: 8290
- retest calcium signal, replicate 2: 139
- Call: inactive

lz (GeneID 31883) #2
- calcium signal, replicate 1: 124
- calcium signal, replicate 2: 235
- Call: inactive

Usp39 (GeneID 32881)
- calcium signal, replicate 1: 149
- calcium signal, replicate 2: 117
- Call: inactive

CG11060 (GeneID 35641)
- calcium signal, replicate 1: 236
- calcium signal, replicate 2: 85.7
- Call: inactive

Acp33A + CG15841 (retired record)
- calcium signal, replicate 1: 157
- calcium signal, replicate 2: 156
- Call: inactive

CG4049 (GeneID 37860)
- calcium signal, replicate 1: 106
- calcium signal, replicate 2: 130
- Call: inactive

Arf1 (GeneID 40506)
- calcium signal, replicate 1: 114
- calcium signal, replicate 2: 95.5
- Call: inactive

Ir94g (GeneID 42768)
- calcium signal, replicate 1: 274
- calcium signal, replicate 2: 140
- Call: inactive

sog (GeneID 32498)
- calcium signal, replicate 1: 90
- calcium signal, replicate 2: 95.7
- Call: inactive

Upf1 (GeneID 32153)
- calcium signal, replicate 1: 121
- calcium signal, replicate 2: 145
- Call: inactive

RpL7A (GeneID 31588)
- calcium signal, replicate 1: 119
- calcium signal, replicate 2: 86.8
- Call: active

Samtor (GeneID 37934)
- calcium signal, replicate 1: 63.9
- calcium signal, replicate 2: 200
- Call: active

DCTN4-p62 (GeneID 35709)
- calcium signal, replicate 1: 138
- calcium signal, replicate 2: 88.4
- Call: inactive
